No constants are given. Whether binding was seen depends on the method and setting. Binding seen in cells or lysates may run through a third protein. Some binding calls cover weakened binding; strength is not graded here. Where a sequence is shown, tags or fusion partners need not be part of it.
Experiments:
HA-tagged GIGYF2 (human) [1] = biological target: T1, HA-tagged GIGYF2 (human) (UniProt Q6Y7W6); test: co-immunoprecipitation in HEK293T cells, peptide elution, western blot (figure legend)
T1 sequence: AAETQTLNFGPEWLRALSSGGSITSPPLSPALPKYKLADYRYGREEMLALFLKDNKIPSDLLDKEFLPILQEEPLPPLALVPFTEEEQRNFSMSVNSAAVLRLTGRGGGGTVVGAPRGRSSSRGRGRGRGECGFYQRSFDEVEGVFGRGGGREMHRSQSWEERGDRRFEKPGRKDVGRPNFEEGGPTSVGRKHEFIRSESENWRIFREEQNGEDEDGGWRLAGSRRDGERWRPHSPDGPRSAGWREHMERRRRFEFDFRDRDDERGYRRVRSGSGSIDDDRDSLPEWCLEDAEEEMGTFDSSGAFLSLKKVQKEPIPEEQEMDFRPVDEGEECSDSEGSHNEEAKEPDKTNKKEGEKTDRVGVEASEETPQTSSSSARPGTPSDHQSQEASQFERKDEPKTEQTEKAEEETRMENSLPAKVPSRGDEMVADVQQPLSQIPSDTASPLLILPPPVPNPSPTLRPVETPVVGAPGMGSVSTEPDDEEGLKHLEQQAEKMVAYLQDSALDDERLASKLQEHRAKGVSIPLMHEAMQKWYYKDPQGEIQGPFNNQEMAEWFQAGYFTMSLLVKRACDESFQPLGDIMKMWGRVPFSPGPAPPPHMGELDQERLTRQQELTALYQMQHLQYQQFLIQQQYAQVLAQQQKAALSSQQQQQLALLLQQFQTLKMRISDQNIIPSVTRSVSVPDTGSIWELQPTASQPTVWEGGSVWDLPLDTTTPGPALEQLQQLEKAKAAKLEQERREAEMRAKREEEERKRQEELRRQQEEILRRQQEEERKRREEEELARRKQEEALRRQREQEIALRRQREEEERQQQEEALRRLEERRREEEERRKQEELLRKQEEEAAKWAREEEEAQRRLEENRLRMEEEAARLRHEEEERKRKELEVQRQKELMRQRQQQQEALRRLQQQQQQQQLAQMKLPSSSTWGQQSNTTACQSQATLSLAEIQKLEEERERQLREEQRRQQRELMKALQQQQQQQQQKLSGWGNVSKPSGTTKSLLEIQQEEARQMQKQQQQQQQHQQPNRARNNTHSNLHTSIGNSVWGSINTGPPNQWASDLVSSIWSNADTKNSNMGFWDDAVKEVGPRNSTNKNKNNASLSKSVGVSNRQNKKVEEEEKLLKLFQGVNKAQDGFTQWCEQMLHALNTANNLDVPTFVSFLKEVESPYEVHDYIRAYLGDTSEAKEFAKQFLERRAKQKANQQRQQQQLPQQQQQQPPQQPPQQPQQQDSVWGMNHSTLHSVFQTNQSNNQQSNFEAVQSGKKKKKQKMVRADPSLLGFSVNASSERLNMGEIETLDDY

Protein sequences, listed by entry. Tags and fused reporters are not part of them. Lines headed by an entry give the natural chain unless they say otherwise; changes in a name come on top.
UniProt Q5R6Z6: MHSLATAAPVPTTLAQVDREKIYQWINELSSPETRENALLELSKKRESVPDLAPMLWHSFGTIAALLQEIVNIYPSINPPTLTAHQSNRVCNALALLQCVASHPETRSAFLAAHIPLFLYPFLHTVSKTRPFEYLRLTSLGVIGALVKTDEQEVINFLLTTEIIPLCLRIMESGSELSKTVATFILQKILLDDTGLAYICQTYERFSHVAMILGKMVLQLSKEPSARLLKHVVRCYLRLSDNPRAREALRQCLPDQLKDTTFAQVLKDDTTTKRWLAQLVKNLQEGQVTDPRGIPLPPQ

HA-tagged GIGYF1 (human) [2] = biological target: T2, HA-tagged GIGYF1 (human) (UniProt O75420); test: as above
T2 sequence: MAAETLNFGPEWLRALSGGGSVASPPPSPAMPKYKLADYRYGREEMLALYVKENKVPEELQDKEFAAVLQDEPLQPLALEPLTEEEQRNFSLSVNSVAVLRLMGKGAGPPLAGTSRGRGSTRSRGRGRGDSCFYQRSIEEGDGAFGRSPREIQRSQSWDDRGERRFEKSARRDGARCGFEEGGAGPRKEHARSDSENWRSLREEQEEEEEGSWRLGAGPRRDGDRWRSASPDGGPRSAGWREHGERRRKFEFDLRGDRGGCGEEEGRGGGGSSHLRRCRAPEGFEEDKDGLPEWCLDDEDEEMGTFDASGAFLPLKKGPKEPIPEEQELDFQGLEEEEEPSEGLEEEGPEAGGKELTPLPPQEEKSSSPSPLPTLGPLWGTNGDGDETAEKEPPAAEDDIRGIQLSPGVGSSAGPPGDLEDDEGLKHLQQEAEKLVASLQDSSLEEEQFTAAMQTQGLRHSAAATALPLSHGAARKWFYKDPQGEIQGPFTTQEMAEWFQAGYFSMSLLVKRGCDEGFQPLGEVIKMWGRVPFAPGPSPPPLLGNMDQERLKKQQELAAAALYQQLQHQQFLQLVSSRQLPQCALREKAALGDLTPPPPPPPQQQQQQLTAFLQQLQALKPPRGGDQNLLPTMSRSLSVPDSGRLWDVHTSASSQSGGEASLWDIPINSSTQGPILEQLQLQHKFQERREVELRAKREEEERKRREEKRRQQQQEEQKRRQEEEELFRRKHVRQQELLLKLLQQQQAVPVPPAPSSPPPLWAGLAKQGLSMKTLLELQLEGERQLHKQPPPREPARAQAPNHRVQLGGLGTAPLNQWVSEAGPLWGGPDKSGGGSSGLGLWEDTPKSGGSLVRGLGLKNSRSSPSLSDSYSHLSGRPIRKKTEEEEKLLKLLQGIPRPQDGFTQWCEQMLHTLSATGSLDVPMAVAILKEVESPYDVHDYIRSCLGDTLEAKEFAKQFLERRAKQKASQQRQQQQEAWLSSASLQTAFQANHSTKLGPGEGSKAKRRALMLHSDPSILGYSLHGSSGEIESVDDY

HA-tagged GIGYF2 (human) [3] = biological target: T1, HA-tagged GIGYF2 (human); test: co-immunoprecipitation in co-transfected HEK293T cells, both directions (anti-Flag and anti-HA agarose), western blot
HA-tagged GIGYF1 (human) [4] = biological target: T2, HA-tagged GIGYF1 (human); test: as above

Measured: binding

Flag-tagged RQCD1 (from UniProt Q5R6Z6 1-299)
binds: all assays above
